Molecules are shown by their SMILES. This is a selection; strong and weak results do not stand in their true shares. Calls are pooled over several reports, among them a noisy single-well screen. The list shows a part of the results.

One experiment concerns the target T1, OR7G2 (Homo sapiens) (UniProt Q8NG99).
T1 sequence (whole entry): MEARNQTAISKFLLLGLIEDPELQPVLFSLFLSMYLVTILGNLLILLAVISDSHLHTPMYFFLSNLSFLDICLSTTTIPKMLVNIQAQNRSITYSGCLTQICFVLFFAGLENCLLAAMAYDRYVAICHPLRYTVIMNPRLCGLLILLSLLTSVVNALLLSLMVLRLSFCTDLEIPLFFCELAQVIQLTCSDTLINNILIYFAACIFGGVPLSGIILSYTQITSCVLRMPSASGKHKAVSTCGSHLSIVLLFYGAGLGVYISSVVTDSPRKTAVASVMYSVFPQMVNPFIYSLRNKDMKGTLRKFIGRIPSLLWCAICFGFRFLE
The note with it: stereoisomer not certain. The gist of the method: (§1)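 Each entry records the cell line, G-protein, co-transfected protein and tags used. Methods varied with the source, often transient luciferase assays in mammalian cell lines. A receptor–molecule pair is called responsive (active) if the original authors judged its signal statistically different from baseline and non-responsive (inactive) otherwise.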
In the case of `CCCCCCCOC(C)=O`, the “odorant receptor agonist call” value is “inactive”.
The same measure, in the same setting: the result for `CC1=NC(C)SC1C` (stereo not given) reads “inactive”; that for `C=CCc1ccc(OC(C)=O)c(OC)c1`, “inactive”.
Still for that read-out and setting: the same measure for `COc1cc(C=O)ccc1O`: “inactive”.
The same measure, in the same setting: the same measure for `CCCCCC(C)=O`: “inactive”; for `COc1ccccc1O`: “inactive”; for `COc1cc(C)ccc1O`: “inactive”.
On to `CCCCCCCCCCC=O`, for which the “odorant receptor agonist call” value is “inactive”.
Same read-out and setting: the result for `O=C1CCCCC1` reads “inactive”.
Turning to `CC(=O)OC1CC2CCC1(C)C2(C)C` (stereo not given), the “odorant receptor agonist call” value was “inactive”.
The same measure, in the same setting: the result for `COC(=O)c1ccccc1` reads “inactive”.

A further experiment relates to T2, OR7G2.
T2 sequence (whole entry): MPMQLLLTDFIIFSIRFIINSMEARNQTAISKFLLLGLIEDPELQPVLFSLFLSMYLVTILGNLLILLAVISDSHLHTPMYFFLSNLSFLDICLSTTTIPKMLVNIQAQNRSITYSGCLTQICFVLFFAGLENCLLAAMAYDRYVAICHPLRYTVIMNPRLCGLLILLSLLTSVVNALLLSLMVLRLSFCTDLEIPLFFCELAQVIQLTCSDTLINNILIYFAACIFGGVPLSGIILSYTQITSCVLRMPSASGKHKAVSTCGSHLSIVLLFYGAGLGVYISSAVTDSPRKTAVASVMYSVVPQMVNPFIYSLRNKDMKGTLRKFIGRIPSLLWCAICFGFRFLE
The note with it: stereoisomer not certain. The procedure, abridged: as §1
As for `CCCCCCCCCC=O`, the “odorant receptor agonist call” value was “inactive”.
As to `CCCCCOC(C)=O`, the “odorant receptor agonist call” value was “inactive”.
The same measure, in the same setting: the result for `c1cnccn1` reads “inactive”; that for `CC1=CCC(C(C)(C)O)CC1` (stereo not given), “inactive”.
For `CCCCO`, the “odorant receptor agonist call” value was “inactive”.
Same read-out and setting: the same measure for `O=C1CCCCCCCCCCCC(=O)OCCO1`: “inactive”.
On the same count and under the same terms, the result for `CC(C)CC(=O)O` reads “inactive”.
On the same count and under the same terms, the same measure for `O=C1CCCCCCCCCCCCCCO1`: “inactive”; for `CCCCCCOC(=O)CCC`: “inactive”.
Take `O=CCc1ccccc1`: the “odorant receptor agonist call” value is “inactive”.
On the same count and under the same terms, the result for `CC(C)C=O` reads “inactive”; that for `CCC1(O)C2(C)CCC(C2)C1(C)C` (stereo not given), “inactive”.
The same measure, in the same setting: the same measure for `CC(=O)c1ccccc1`: “inactive”.
On the same count and under the same terms, the same measure for `CC(C)=CCCC(C)=CC=O`: “inactive”; for `CC(=O)OCC=C(C)CCC=C(C)C`: “inactive”.
As to `CC=Cc1ccc(O)c(OC)c1`, the “odorant receptor agonist call” value is “inactive”.
With `CCCCCCCOC(C)=O`, the “odorant receptor agonist call” value is “inactive”.
Take `CC1=NC(C)SC1C` (stereo not given): the “odorant receptor agonist call” value was “inactive”.
On the same count and under the same terms, the same measure for `C=CCc1ccc(OC(C)=O)c(OC)c1`: “inactive”; for `COc1cc(C=O)ccc1O`: “inactive”.
On the same count and under the same terms, the same measure for `CCCCCC(C)=O`: “inactive”.
Still for that read-out and setting: the same measure for `COc1ccccc1O`: “inactive”; for `COc1cc(C)ccc1O`: “inactive”.
For the compound `CCCCCCCCCCC=O`, the “odorant receptor agonist call” value was “inactive”.
Still for that read-out and setting: the same measure for `O=C1CCCCC1`: “inactive”.
Still for that read-out and setting: the same measure for `CC(=O)OC1CC2CCC1(C)C2(C)C` (stereo not given): “inactive”; for `COC(=O)c1ccccc1`: “inactive”.

The target of another experiment is T3, OR7G3 (Homo sapiens) (UniProt Q8NG95).
T3 sequence (whole entry): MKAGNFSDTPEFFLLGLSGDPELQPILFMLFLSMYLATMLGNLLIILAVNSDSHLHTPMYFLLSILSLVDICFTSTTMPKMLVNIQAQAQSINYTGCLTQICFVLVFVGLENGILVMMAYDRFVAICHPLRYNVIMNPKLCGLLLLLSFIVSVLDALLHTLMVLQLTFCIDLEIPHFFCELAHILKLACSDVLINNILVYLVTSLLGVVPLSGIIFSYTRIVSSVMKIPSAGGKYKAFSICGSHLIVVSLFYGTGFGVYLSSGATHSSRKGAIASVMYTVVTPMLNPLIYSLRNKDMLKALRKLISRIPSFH
The note with it: stereoisomer not certain. The procedure, abridged:
as §1
Turning to `CCCCCCCCCC=O`, the “odorant receptor agonist call” value was “inactive”.
The same measure, in the same setting: the same measure for `CCCCCOC(C)=O`: “inactive”.
Same read-out and setting: the result for `c1cnccn1` reads “inactive”; that for `CC1=CCC(C(C)(C)O)CC1` (stereo not given), “inactive”; that for `CCCCO`, “inactive”.
On the same count and under the same terms, the result for `O=C1CCCCCCCCCCCC(=O)OCCO1` reads “inactive”; that for `CC(C)CC(=O)O`, “inactive”; that for `O=C1CCCCCCCCCCCCCCO1`, “inactive”.
`CCCCCCOC(=O)CCC`: the “odorant receptor agonist call” value is “inactive”.
Still for that read-out and setting: the same measure for `O=CCc1ccccc1`: “inactive”.
The same measure, in the same setting: the result for `CC(C)C=O` reads “inactive”; that for `CCC1(O)C2(C)CCC(C2)C1(C)C` (stereo not given), “inactive”; that for `CC(=O)c1ccccc1`, “inactive”.
On the same count and under the same terms, the result for `CC(C)=CCCC(C)=CC=O` reads “inactive”.
Consider `CC(=O)OCC=C(C)CCC=C(C)C`, for which the “odorant receptor agonist call” value is “inactive”.
Same read-out and setting: the same measure for `CC=Cc1ccc(O)c(OC)c1`: “inactive”.
The same measure, in the same setting: the same measure for `CCCCCCCOC(C)=O`: “inactive”; for `CC1=NC(C)SC1C` (stereo not given): “inactive”.
Same read-out and setting: the result for `C=CCc1ccc(OC(C)=O)c(OC)c1` reads “active”; that for `COc1cc(C=O)ccc1O`, “inactive”.
In the case of `CCCCCC(C)=O`, the “odorant receptor agonist call” value was “active”.
As to `COc1ccccc1O`, the “odorant receptor agonist call” value was “inactive”.
Still for that read-out and setting: the same measure for `COc1cc(C)ccc1O`: “inactive”; for `CCCCCCCCCCC=O`: “inactive”; for `O=C1CCCCC1`: “inactive”.
On the same count and under the same terms, the result for `CC(=O)OC1CC2CCC1(C)C2(C)C` (stereo not given) reads “inactive”.
Same read-out and setting: the same measure for `COC(=O)c1ccccc1`: “inactive”.
